The list does not hold the whole screen: it is rich in T/C values a quarter to a half above the control, in often repeated tests (any T/C) and in doses without a T/C. Further doses and runs are listed elsewhere. T/C is the treated group as % of the vehicle group. Some doses have a count of surviving animals in place of a T/C: the source holds a T/C of zero for them, seemingly a mark for toxic or unscored doses. Some survivor counts are full or nearly so, which does not show that the dose was tolerated: the source hardly ever lists a survival T/C far under the control, and the zero likely stands for such cases as well. Counts of survivors are from the toxicity check (mostly the fifth day) where no day follows; animals may have died later. Schedules are NCI's codes, taken here to give the interval after Q, in days (D) or hours (H), and the number of doses after X. Some doses were run more than once; the values are given in rising order. For survival time, the PubChem record calls one and a half times the control and up active, and a quarter to a half above the control has no call in these data; cut-offs in other NCI protocols can differ.

In this test the test system is BDF1 mice, B16 melanoma ip, median survival T/C. Briefly: NCI In Vivo Anticancer Drug Screen. Data for tumor model B16 Melanoma (intraperitoneal) in B6D2F1 (BDF1) mice. Particulars: T/C endpoint: median survival time, higher T/C = longer survival. Summed up: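 In this screen, activity was judged from survival or tumor size in treated versus vehicle-treated tumor-bearing mice, reported as T/C.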

Setting [1] is: dose: 50.0 mg/kg/injection, schedule: Q01DX009 (ip), vehicle: saline with Tween-80.
Setting [2] is: dose: 100.0 mg/kg/injection, schedule: Q01DX009 (ip), vehicle: saline with Tween-80.
[3] abbreviates: dose: 12.5 mg/kg/injection, schedule: Q01DX009 (ip), vehicle: Klucel (hydroxypropylcellulose) (HPC).
Setting [4] is: dose: 25.0 mg/kg/injection, schedule: Q01DX009 (ip), vehicle: Klucel (hydroxypropylcellulose) (HPC).
Where [5] appears, read: dose: 50.0 mg/kg/injection, schedule: Q01DX009 (ip), vehicle: Klucel (hydroxypropylcellulose) (HPC).
Setting [6] is: dose: 100.0 mg/kg/injection, schedule: Q01DX009 (ip), vehicle: Klucel (hydroxypropylcellulose) (HPC).
Setting [7] is: dose: 200.0 mg/kg/injection, schedule: Q01DX009 (ip), vehicle: Klucel (hydroxypropylcellulose) (HPC).
[8] abbreviates: dose: 400.0 mg/kg/injection, schedule: Q01DX009 (ip), vehicle: Klucel (hydroxypropylcellulose) (HPC).
Setting [9] is: dose: 200.0 mg/kg/injection, schedule: Q01DX009 (ip), vehicle: saline with Tween-80.
Setting [10] is: dose: 12.5 mg/kg/injection, schedule: Q01DX009 (ip), vehicle: saline with Tween-80.
Where [11] appears, read: dose: 25.0 mg/kg/injection, schedule: Q01DX009 (ip), vehicle: saline with Tween-80.

Turning to `CC(=O)NNC(=O)c1ccccn1`, the survivor count under setting [1] is 6 of 6; the survivor count under setting [2] is recorded as 6 of 6; the survivor count (dose: 150.0 mg/kg/injection, schedule: Q01DX009 (ip), vehicle: water) is 3 of 6 and 5 of 6; the survivor count (dose: 200.0 mg/kg/injection, schedule: Q01DX009 (ip), vehicle: water) is listed as 3 of 6.

In the case of `O=C(O)CCNCc1ccccc1`, the T/C (dose: 25.0 mg/kg/injection, schedule: Q01DX009 (ip), vehicle: saline) was 127 % of control.

Consider `CCOC(=O)C(=O)C(C#N)C(=O)OCC` (stereo not given), for which the T/C under setting [3] was 129 % of control. For the same compound, the survivor count runs as follows: under setting [4], 10 of 10; under setting [5], 10 of 10; under setting [6], 10 of 10.

`Nc1ccccc1SC1CC(=O)N(c2ccc(Br)cc2Cl)C1=O` (stereo not given): the survivor count by setting is: under setting [6], 10 of 10; under setting [7], 10 of 10.

On to `Cc1ccn(C(N)=O)n1`, for which, under setting [8], the survivor count is reported as 8 of 10.

Turning to `CC1CN1P(=S)(Oc1ccccc1)N1CC1C` (stereo not given), under setting [9], the survivor count is 10 of 10.

Consider `CCCCCCCCCCCCCCCCNS(=O)(=O)c1ccc(NN)cc1`, for which the survivor count is on record as 9 of 10 under setting [6] and 10 of 10 under setting [7].

As to `CCNC(=O)OCc1c(COC(=O)NCC)c(-c2ccc(Cl)c(Cl)c2)n2c1CCC2`, the T/C under setting [10] is 144 % of control. The survivor count by setting is: under setting [1], 10 of 10; under setting [2], 2 of 10.

As for `CCN1C=C/C(=C/c2cc3scc(-c4ccccc4)[n+]3c3ccccc23)c2ccccc21`, the survivor count (dose: 0.6 mg/kg/injection, schedule: Q01DX009 (ip), vehicle: saline) is given as 9 of 10.

As to `Cc1ccc(NC(=O)Nc2cccc3ccccc23)cc1Cl`, the survivor count reads like this: under setting [5], 10 of 10; under setting [6], 10 of 10; under setting [7], 10 of 10; under setting [8], 10 of 10.

As to `CCOc1cc(C2=NNc3n[nH]c(=S)n3N2)ccc1O`, the survivor count under setting [6] is listed as 10 of 10.

Regarding `CC1=C/C(O)CC(=O)Cc2nc(co2)C(=O)N2CCC=C2C(=O)OC(C(C)C)C(C)/C=C\C(=O)NC/C=C\1` (stereo not given), the survivor count under setting [8] was 10 of 10 and the survivor count (dose: 4.0 micrograms/kg/injection, schedule: Q01DX009 (ip), vehicle: saline) is 10 of 10.

With `COc1cccc2c1C(=O)c1c(O)c3c(c(O)c1C2=O)C[C@@](O)(C(=O)CO)C[C@@H]3OC1CC(N2CCOCC2C#N)C(O)C(C)O1` (stereo not given in full), the survivor count by setting is: (dose: 75.0 micrograms/kg/injection, schedule: Q01DX001 (ip), vehicle: water) 6 of 10; (dose: 150.0 micrograms/kg/injection, schedule: Q01DX001 (ip), vehicle: water) 0 of 10; (dose: 300.0 micrograms/kg/injection, schedule: Q01DX001 (ip), vehicle: water) 0 of 10; (dose: 600.0 micrograms/kg/injection, schedule: Q01DX001 (ip), vehicle: water) 0 of 10.

Take `NC(=O)c1ncn2c(=O)n(CCCl)nnc12`: the T/C (dose: 3.12 mg/kg/injection, schedule: Q01DX009 (ip), vehicle: saline) was 144 % of control.

As for `O=[N+]([O-])c1ccc(C=C2C(Cl)=C(Cl)C(Cl)=C2Cl)cc1`, the survivor count under setting [11] is 10 of 10.

In the case of `CCCc1c(Cl)nc(Cl)nc1Cl`, the survivor count reads like this: under setting [5], 8 of 10; under setting [6], 1 of 10.

Consider `S=C([S][Sn]([c]1ccccc1)([c]1ccccc1)[c]1ccccc1)N1CCOCC1`, for which the survivor count reads like this: under setting [10], 10 of 10; under setting [11], 8 of 10; under setting [1], 0 of 10; under setting [2], 0 of 10; under setting [9], 0 of 10.

Regarding `CN1C=c2c3c(ccc2=C2C=CC4C=C5OCOC5=CC4=C21)OCO3` (stereo not given), the survivor count (dose: 7.5 mg/kg/injection, schedule: Q01DX009 (ip), vehicle: saline) was 6 of 6; the survivor count (dose: 15.0 mg/kg/injection, schedule: Q01DX009 (ip), vehicle: saline) is listed as 6 of 6; the survivor count (dose: 30.0 mg/kg/injection, schedule: Q01DX009 (ip), vehicle: saline) is 4 of 6; the survivor count (dose: 60.0 mg/kg/injection, schedule: Q01DX009 (ip), vehicle: saline) is 2 of 6.

For `CN1C(=O)CN=C(c2ccccc2)c2cc(Cl)ccc21`, the survivor count (dose: 0.2 mg/kg/injection, schedule: Q01DX009 (ip), vehicle: saline) is on record as 10 of 10; the survivor count (dose: 0.78 mg/kg/injection, schedule: Q01DX009 (ip), vehicle: Klucel (hydroxypropylcellulose) (HPC)) is 10 of 10; the survivor count (dose: 1.56 mg/kg/injection, schedule: Q01DX009 (ip), vehicle: Klucel (hydroxypropylcellulose) (HPC)) is 9 of 10; the survivor count (dose: 3.12 mg/kg/injection, schedule: Q01DX009 (ip), vehicle: Klucel (hydroxypropylcellulose) (HPC)) is reported as 10 of 10; the survivor count (dose: 6.25 mg/kg/injection, schedule: Q01DX009 (ip), vehicle: Klucel (hydroxypropylcellulose) (HPC)) is on record as 10 of 10.

As for `Nc1nc(=S)c2ncn(C3OC(COC(=O)c4ccccc4)C(OC(=O)c4ccccc4)C3OC(=O)c3ccccc3)c2[nH]1` (stereo not given), under setting [10], the T/C was 125 % of control. Further, the survivor count is given as 10 of 10 under setting [1] and 10 of 10 under setting [2].

`CCC(=O)NC1=C(N2CC2C)C(=O)C(NC(=O)CC)=C(N2CC2C)C1=O` (stereo not given): the survivor count runs as follows: (dose: 0.19 mg/kg/injection, schedule: Q01DX009 (ip), vehicle: Klucel (hydroxypropylcellulose) (HPC)) 10 of 10; under setting [3], 9 of 10; under setting [4], 3 of 10; under setting [5], 10 of 10.

The values above are taken from PubChem BioAssay AID192 (DTP/NCI, 2004).
